These are yes or no findings as the source states them, for the method shown. Binding seen in cells or lysates may run through a third protein.

Protein sequences, listed by entry. Tags and fused reporters are not part of them.
UniProt Q8NHV4: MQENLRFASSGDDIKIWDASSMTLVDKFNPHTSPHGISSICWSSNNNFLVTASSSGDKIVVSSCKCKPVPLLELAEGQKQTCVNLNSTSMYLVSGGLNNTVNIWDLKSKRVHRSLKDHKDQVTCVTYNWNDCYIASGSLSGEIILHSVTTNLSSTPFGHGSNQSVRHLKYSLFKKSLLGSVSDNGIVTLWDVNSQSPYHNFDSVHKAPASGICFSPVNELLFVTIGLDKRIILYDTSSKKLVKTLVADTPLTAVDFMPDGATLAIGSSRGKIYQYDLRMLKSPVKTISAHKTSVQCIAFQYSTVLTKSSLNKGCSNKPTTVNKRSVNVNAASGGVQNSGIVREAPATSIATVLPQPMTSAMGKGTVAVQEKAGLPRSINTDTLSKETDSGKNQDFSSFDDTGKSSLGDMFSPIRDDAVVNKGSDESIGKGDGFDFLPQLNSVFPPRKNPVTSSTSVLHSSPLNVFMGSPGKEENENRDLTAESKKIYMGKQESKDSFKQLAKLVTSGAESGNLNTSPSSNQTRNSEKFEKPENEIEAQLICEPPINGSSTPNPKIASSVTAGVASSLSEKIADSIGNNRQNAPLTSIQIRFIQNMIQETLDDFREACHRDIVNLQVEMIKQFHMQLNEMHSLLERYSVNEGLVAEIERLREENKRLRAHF
UniProt Q14008: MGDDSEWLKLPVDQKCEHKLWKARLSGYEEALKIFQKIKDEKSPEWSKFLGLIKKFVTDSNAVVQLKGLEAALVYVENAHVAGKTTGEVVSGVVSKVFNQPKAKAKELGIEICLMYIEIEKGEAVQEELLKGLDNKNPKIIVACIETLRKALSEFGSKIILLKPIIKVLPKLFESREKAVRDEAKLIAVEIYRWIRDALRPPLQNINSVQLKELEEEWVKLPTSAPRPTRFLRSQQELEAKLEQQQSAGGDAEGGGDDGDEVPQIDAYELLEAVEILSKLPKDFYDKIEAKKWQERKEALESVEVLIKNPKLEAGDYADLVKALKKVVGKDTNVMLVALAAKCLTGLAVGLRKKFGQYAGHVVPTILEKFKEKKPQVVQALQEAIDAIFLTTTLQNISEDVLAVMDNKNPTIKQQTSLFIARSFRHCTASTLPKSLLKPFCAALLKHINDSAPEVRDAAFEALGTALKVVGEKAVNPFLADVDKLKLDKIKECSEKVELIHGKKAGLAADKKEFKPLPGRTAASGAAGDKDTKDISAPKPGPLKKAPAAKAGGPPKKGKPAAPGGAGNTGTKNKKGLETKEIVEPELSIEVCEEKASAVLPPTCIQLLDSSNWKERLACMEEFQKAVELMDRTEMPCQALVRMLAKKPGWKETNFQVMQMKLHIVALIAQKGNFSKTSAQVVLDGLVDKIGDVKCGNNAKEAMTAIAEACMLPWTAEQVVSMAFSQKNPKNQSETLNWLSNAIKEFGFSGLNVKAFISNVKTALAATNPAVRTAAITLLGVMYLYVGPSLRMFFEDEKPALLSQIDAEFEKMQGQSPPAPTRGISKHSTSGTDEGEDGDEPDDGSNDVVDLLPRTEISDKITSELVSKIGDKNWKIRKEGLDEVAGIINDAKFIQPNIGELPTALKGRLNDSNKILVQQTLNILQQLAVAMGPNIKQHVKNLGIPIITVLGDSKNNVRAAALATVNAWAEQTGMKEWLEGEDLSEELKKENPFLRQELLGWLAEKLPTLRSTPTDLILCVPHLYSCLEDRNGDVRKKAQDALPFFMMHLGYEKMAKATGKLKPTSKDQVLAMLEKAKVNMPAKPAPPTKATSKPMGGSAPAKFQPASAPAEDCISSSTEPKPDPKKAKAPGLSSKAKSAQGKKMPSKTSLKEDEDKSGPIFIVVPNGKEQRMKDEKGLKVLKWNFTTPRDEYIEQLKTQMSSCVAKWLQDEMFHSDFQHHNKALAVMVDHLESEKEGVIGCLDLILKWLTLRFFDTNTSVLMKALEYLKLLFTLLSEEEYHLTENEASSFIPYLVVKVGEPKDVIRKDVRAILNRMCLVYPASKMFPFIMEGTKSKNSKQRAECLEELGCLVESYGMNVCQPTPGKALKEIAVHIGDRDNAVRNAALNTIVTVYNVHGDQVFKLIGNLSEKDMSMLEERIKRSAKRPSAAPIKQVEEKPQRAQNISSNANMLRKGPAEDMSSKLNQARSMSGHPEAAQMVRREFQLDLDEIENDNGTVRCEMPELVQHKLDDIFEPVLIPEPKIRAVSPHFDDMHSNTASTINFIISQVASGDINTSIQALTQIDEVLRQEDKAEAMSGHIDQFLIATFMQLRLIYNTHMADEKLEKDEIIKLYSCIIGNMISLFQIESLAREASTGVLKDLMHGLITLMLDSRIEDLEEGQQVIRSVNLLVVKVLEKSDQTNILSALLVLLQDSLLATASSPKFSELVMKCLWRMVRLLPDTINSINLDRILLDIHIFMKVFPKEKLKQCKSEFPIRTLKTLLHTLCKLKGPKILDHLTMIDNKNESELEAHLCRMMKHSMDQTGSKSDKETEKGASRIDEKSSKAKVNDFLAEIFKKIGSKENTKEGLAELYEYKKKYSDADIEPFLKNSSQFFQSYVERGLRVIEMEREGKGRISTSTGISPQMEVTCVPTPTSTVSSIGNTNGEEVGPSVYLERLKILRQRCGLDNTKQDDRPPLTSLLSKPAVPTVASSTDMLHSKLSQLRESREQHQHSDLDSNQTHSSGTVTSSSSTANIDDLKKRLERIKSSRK

Among the data in article PMC9879976 are binding values, retold here.

In the assay the target is NEDD1 (human (endogenous in U2OS)) (UniProt Q8NHV4). Kind of assay: co-IP; endogenous ch-TOG, GCP3 or NEDD1 immunoprecipitated from U2OS lysate (20 mM Tris-HCl pH 8.0, 100 mM NaCl, 1 mM EGTA, 1 mM MgCl2, 0.5% NP40), 30 min at 4 °C, Protein G dynabeads, Western blot; unspecific rabbit IgG as control. A general note: Immunoblotting shows a protein as a band on a membrane.

On to ch-TOG (from UniProt Q14008 1-2032), for which the binding result is on record as “no binding”.
